Measurements published in paper doi:10.1101/2023.10.16.562477.

The chains behind the UniProt entries cited, without tags or fusion partners. Where a name states a change or a piece, a line headed by the entry shows the natural chain unless it says otherwise. A line that says so, or that is headed by a name, gives the form on record, which may keep a tag or linker.
HBH-ΔF508-CFTR-3HA (P13569, form named): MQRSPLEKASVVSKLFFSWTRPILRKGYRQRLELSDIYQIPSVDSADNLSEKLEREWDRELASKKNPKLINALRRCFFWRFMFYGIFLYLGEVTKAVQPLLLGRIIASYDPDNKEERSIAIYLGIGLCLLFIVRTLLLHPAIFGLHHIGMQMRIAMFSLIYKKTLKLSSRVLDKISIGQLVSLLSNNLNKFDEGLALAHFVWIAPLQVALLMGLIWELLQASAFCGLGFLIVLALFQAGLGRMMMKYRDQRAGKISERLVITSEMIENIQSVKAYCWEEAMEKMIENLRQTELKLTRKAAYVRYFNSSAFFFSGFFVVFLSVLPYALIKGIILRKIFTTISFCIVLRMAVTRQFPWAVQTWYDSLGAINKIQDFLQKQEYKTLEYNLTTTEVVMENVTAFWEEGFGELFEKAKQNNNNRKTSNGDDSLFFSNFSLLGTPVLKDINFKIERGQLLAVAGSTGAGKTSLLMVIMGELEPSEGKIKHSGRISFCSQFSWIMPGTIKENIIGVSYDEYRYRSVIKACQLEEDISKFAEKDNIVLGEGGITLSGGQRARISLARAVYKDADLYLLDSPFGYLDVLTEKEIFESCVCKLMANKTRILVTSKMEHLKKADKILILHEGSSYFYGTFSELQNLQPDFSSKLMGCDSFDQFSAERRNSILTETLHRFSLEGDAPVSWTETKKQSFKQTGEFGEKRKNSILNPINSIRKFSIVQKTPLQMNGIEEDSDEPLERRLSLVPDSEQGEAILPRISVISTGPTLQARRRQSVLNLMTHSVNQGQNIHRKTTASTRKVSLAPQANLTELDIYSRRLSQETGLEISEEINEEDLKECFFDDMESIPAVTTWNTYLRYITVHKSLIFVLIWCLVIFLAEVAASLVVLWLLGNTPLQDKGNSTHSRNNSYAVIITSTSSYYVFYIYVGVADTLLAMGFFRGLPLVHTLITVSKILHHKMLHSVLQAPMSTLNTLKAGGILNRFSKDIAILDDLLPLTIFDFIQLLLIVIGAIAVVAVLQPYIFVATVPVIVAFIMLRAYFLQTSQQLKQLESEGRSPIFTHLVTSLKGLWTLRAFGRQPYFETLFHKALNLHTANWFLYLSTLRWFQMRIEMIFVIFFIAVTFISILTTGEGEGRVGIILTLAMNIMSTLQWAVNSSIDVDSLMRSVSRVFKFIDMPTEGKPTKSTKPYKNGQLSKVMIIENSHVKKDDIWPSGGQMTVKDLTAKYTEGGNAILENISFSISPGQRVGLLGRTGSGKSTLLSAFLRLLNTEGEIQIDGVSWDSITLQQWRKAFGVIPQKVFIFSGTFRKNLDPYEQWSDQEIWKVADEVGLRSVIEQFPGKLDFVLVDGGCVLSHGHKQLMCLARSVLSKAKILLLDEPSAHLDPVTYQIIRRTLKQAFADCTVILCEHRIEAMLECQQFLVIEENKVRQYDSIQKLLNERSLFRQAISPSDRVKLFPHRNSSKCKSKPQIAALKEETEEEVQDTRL
UniProt Q9UHD9: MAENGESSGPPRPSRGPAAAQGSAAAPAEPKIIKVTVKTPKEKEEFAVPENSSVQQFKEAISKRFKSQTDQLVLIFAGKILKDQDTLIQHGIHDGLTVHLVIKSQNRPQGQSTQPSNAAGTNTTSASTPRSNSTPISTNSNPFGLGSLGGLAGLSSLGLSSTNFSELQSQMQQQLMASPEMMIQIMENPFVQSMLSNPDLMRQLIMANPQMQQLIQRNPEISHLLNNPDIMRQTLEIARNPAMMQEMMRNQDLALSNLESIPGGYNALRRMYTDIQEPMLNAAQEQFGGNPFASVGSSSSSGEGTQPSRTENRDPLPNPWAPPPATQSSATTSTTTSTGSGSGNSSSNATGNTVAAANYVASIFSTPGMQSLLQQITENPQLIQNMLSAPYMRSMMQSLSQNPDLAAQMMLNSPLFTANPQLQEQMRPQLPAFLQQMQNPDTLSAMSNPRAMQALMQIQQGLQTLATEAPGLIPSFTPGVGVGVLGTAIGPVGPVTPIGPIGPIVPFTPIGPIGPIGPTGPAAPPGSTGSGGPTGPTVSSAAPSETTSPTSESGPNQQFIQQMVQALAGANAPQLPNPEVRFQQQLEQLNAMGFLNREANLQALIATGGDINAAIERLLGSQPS

Biological target: HBH-ΔF508-CFTR-3HA (BHK cells) (UniProt P13569)
Assay: pull-down

FLAG-UBQLN2 with the central M domain (M) deleted (from UniProt Q9UHD9)
binding: binds

No constants are given. Whether binding was seen depends on the method and setting. Binding seen in cells or lysates may run through a third protein. A result given as binding can be weak or reduced; the word gives no strength.
